Measurements taken from the supplement of paper PMC12823440, “Inhibitors supercharge kinase turnover through native proteolytic circuits” (Nature, 2025).
The list shows a part of the results. The calls rarely recur for the same compound in another form.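 Kinases, fused to nanoluciferase, were expressed in K562 cells; luminescence was measured every 4 h from 2 to 18 h as percent of control (DMSO = 100%, positive control = 0%). A time point is decreased if signal falls significantly (2 sigma). Hits were called by the authors by a rule that is not shown; the count of time points alone does not decide it.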

Sequences of proteins named here, by UniProt entry; tags and fusion partners are left off. A change or cut given only in a name is not applied to a line headed by its entry.
UniProt P29597: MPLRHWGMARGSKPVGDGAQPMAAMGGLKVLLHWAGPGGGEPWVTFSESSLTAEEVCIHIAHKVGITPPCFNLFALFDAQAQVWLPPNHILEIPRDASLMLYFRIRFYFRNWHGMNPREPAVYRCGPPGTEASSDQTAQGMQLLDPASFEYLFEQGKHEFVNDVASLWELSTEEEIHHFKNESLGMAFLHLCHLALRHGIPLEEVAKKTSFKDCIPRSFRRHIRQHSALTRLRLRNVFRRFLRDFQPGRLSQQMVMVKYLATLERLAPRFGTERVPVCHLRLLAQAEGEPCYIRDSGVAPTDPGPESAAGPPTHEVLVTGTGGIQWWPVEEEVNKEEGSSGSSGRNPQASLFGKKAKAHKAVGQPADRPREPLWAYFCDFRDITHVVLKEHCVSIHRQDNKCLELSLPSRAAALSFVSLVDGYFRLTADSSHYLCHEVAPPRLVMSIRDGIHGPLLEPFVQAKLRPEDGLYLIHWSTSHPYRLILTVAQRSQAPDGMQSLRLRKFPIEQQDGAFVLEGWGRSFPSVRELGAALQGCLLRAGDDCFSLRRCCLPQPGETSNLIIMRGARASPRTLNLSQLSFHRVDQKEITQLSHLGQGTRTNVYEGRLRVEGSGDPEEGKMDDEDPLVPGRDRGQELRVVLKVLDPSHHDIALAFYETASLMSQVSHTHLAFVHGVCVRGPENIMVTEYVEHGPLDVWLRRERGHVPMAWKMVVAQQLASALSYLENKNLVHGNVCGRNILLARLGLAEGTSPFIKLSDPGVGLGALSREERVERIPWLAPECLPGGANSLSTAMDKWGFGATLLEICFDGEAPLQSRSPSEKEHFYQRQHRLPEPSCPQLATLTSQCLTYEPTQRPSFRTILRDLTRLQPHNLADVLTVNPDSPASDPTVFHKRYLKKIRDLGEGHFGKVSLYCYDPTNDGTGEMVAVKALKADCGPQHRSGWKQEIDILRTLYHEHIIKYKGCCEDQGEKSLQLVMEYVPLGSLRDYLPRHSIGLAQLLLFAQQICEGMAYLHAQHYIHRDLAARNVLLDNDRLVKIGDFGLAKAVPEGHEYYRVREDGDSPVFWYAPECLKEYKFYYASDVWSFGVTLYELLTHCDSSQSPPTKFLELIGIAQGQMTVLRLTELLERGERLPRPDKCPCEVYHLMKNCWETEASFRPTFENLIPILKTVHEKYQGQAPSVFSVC
UniProt Q6PHR2: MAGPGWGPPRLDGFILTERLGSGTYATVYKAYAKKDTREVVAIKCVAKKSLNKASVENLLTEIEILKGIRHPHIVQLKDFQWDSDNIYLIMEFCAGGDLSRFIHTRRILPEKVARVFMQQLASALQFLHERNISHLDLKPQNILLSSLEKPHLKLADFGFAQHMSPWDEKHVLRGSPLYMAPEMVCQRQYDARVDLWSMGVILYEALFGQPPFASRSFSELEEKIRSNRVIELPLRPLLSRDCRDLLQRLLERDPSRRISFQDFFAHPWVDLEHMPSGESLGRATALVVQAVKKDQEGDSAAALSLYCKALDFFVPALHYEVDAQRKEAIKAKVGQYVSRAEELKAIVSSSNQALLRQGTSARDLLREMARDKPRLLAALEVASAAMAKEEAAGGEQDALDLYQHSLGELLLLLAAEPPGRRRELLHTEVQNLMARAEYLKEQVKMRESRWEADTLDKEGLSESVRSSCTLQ
UniProt P43403: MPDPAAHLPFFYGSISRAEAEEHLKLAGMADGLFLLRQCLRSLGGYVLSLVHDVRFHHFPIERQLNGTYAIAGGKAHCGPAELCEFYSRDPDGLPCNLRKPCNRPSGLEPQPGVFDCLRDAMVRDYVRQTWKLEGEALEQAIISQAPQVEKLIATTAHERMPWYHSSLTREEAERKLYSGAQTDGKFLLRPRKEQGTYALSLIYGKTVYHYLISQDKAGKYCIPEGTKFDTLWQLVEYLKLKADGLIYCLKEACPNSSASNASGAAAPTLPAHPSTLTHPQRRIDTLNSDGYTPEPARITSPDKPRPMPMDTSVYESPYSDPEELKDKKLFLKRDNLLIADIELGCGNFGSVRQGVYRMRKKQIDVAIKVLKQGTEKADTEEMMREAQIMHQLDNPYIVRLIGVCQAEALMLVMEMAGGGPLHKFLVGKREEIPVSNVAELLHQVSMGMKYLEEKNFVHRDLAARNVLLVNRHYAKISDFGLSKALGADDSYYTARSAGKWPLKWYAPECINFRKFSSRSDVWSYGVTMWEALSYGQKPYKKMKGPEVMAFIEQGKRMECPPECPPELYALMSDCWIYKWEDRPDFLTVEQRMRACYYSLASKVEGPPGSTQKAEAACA
UniProt P31749: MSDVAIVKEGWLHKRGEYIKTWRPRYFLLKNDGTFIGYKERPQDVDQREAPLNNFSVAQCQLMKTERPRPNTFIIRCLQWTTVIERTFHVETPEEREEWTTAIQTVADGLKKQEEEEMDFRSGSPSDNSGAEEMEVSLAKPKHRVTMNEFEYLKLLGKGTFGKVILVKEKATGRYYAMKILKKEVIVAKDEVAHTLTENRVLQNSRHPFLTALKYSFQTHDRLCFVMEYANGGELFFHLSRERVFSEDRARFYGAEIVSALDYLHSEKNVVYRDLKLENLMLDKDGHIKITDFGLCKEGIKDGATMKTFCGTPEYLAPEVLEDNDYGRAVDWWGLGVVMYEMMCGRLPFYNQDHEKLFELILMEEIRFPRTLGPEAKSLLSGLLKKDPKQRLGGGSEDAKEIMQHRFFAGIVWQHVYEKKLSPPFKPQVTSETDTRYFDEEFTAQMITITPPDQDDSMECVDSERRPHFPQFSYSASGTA
UniProt Q9UM73: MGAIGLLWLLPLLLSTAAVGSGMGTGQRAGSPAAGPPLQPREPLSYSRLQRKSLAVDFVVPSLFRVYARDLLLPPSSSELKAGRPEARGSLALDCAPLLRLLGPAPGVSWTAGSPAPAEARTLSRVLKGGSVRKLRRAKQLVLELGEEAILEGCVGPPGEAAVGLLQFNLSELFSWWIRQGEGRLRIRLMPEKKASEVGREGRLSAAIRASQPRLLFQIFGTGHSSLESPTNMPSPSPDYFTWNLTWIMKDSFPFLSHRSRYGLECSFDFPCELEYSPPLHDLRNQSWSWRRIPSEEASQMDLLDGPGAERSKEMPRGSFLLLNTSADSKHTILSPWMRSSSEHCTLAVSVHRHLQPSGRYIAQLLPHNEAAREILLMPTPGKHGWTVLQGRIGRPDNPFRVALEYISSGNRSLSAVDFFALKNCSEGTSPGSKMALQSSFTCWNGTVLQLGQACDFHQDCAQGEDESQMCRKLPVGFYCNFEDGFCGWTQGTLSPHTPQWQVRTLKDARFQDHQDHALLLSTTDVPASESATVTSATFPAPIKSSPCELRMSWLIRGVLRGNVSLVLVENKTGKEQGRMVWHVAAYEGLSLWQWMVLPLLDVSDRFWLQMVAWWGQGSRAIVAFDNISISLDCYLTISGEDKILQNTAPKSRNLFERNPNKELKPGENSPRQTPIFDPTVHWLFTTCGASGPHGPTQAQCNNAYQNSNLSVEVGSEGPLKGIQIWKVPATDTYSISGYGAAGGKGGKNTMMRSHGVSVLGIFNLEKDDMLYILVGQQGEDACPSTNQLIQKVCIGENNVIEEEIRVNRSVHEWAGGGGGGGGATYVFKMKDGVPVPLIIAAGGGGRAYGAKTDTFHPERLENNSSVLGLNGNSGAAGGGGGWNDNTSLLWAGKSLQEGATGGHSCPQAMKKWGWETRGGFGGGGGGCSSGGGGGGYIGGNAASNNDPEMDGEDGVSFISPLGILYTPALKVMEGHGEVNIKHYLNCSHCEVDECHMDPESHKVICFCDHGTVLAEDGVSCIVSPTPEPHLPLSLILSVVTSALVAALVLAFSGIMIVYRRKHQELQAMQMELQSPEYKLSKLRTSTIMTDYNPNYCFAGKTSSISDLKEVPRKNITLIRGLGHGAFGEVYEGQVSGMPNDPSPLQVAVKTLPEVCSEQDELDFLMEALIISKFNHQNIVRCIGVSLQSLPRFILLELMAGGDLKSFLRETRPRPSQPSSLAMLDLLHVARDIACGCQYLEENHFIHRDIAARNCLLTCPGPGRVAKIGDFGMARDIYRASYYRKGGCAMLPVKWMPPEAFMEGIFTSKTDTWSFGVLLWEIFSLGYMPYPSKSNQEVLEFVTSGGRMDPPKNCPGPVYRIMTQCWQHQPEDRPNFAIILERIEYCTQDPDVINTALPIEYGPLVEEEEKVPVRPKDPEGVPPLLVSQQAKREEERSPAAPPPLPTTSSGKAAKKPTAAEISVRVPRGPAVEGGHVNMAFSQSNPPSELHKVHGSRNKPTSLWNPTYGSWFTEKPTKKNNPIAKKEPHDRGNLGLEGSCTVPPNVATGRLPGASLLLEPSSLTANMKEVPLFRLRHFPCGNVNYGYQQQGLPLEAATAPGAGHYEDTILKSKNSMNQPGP
UniProt O14965: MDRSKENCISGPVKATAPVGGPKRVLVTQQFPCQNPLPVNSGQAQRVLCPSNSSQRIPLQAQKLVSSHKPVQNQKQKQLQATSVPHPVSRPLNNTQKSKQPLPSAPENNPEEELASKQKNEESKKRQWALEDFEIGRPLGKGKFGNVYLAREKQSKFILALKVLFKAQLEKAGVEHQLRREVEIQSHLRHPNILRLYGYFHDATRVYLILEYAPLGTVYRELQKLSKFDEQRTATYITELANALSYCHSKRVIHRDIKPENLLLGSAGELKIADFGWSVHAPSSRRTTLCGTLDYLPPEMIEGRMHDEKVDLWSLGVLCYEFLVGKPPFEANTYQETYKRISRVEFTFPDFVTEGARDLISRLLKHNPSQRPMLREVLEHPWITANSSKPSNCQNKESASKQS
UniProt Q9UQB9: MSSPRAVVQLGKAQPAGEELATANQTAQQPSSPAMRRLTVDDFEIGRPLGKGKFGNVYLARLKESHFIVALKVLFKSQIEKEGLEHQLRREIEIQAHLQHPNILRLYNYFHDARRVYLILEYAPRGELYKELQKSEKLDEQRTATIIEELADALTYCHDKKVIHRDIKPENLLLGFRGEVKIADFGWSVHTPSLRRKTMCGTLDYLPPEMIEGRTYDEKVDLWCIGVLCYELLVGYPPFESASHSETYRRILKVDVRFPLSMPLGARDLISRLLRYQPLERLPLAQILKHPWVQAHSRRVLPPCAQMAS
UniProt P51451: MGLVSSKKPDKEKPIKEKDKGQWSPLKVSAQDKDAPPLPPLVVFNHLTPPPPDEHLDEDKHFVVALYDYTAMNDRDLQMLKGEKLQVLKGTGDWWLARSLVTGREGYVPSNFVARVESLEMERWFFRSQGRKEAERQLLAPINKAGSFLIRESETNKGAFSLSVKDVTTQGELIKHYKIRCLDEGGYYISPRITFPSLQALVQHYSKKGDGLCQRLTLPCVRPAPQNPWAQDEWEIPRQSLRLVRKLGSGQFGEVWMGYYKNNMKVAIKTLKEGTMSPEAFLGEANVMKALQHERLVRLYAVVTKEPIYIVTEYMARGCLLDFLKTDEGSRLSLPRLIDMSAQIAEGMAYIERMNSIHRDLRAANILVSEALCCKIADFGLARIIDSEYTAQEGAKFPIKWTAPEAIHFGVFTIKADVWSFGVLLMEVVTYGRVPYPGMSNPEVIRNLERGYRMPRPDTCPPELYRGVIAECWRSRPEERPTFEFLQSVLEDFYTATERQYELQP
UniProt P15056, whole entry, looked up: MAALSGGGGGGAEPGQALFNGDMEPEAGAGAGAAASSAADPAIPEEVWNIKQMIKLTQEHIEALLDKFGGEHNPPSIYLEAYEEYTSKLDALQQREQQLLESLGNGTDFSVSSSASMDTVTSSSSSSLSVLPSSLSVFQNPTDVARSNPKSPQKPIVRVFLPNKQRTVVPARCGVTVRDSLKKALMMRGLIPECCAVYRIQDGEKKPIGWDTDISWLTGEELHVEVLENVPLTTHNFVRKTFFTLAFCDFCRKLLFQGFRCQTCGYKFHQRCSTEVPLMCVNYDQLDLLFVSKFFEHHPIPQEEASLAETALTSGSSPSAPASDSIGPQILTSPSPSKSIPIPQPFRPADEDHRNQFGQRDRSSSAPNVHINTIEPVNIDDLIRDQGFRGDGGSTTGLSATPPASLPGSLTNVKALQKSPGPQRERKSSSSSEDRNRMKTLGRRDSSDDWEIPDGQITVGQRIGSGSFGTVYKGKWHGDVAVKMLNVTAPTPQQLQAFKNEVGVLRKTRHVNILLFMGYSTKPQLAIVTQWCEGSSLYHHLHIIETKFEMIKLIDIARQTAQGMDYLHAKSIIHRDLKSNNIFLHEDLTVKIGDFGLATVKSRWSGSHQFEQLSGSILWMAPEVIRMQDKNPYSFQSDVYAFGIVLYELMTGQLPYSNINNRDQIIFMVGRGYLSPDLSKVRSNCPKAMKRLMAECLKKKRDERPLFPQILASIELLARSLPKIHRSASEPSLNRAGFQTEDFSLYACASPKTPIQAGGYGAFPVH

Tests used:
Conditions in all cases: K562; 2-18 h
STK38 = STK38 (UniProt Q15208); assay: kinase-Nluc reporter destabilization hit call (1 = scored as downregulated) (binary); higher = compound decreases kinase abundance
SYK = SYK (UniProt P43405); assay: as above
TEC = TEC (UniProt P42680); assay: as above
TYK2 = TYK2 (UniProt P29597); assay: as above
ULK3 = ULK3 (UniProt Q6PHR2); assay: as above
YES1 = YES1 (UniProt P07947); assay: as above
ZAK = ZAK (UniProt Q9NYL2); assay: as above
ZAP70 = ZAP70 (UniProt P43403); assay: as above
ABL1 = ABL1 (UniProt P00519); assay: number of time points (of 5) at which kinase-Nluc abundance scored as decreased, DMSO-normalised (count); higher = more persistent destabilization
AKT1 = AKT1 (UniProt P31749); assay: as above
ALK = ALK (UniProt Q9UM73); assay: as above
ARAF = ARAF (UniProt P10398); assay: as above
AURKA = AURKA (UniProt O14965); assay: as above
AURKB = AURKB (UniProt Q96GD4); assay: as above
AURKC = AURKC (UniProt Q9UQB9); assay: as above
BLK = BLK (UniProt P51451); assay: as above
BMX = BMX (UniProt P51813); assay: as above
BRAF = BRAF (UniProt P15056); assay: as above
BRAF_V600E = assay: as above
BTK = BTK (UniProt Q06187); assay: as above

CCN1CCN(Cc2cnc(Nc3cc(-c4cc(F)c5nc(C)n(C(C)C)c5c4)c(F)cn3)nc2)CC1 (10 µM)
inactive: kinase-Nluc reporter destabilization hit call (STK38) 0 | kinase-Nluc reporter destabilization hit call (SYK) 0 | kinase-Nluc reporter destabilization hit call (TEC) 0 | kinase-Nluc reporter destabilization hit call (TYK2) 0 | kinase-Nluc reporter destabilization hit call (ULK3) 0 | kinase-Nluc reporter destabilization hit call (YES1) 0 | kinase-Nluc reporter destabilization hit call (ZAK) 0 | kinase-Nluc reporter destabilization hit call (ZAP70) 0
0: number of time points (ABL1) | number of time points (AKT1) | number of time points (ALK) | number of time points (ARAF) | number of time points (AURKB) | number of time points (AURKC) | number of time points (BLK) | number of time points (BRAF) | number of time points (BTK)
1: number of time points (BRAF_V600E)
3: number of time points (AURKA) | number of time points (BMX)

N#C/C(=C\c1ccc(O)c(O)c1)C(=O)O [Tyrphostin AG30] (10 µM)
0: number of time points (ABL1) | number of time points (AKT1) | number of time points (ALK) | number of time points (ARAF) | number of time points (AURKA) | number of time points (AURKB) | number of time points (AURKC) | number of time points (BLK) | number of time points (BMX) | number of time points (BRAF) | number of time points (BRAF_V600E) | number of time points (BTK)
inactive: kinase-Nluc reporter destabilization hit call (STK38) 0 | kinase-Nluc reporter destabilization hit call (SYK) 0 | kinase-Nluc reporter destabilization hit call (TEC) 0 | kinase-Nluc reporter destabilization hit call (TYK2) 0 | kinase-Nluc reporter destabilization hit call (ULK3) 0 | kinase-Nluc reporter destabilization hit call (YES1) 0 | kinase-Nluc reporter destabilization hit call (ZAK) 0 | kinase-Nluc reporter destabilization hit call (ZAP70) 0

C=CC(=O)Nc1ccc(C(=O)Nc2[nH]nc3c2CN(C(=O)N[C@H](CN(C)C)c2ccccc2)C3(C)C)cc1 (10 µM)
1: number of time points (ABL1) | number of time points (AKT1)
2: number of time points (ALK) | number of time points (BMX) | number of time points (BRAF)
4: number of time points (BRAF_V600E)
inactive: kinase-Nluc reporter destabilization hit call (STK38) 0 | kinase-Nluc reporter destabilization hit call (SYK) 0 | kinase-Nluc reporter destabilization hit call (TEC) 0 | kinase-Nluc reporter destabilization hit call (TYK2) 0 | kinase-Nluc reporter destabilization hit call (ULK3) 0 | kinase-Nluc reporter destabilization hit call (YES1) 0 | kinase-Nluc reporter destabilization hit call (ZAK) 0 | kinase-Nluc reporter destabilization hit call (ZAP70) 0
0: number of time points (ARAF) | number of time points (AURKB) | number of time points (AURKC) | number of time points (BTK)
3: number of time points (AURKA) | number of time points (BLK)

CC(C)[C@H](CO)Nc1nc(Nc2cccc(Cl)c2)c2ncn(C(C)C)c2n1 [Purvalanol A] (10 µM)
0: number of time points (ABL1) | number of time points (AKT1) | number of time points (ALK) | number of time points (ARAF) | number of time points (AURKA) | number of time points (AURKB) | number of time points (AURKC) | number of time points (BLK) | number of time points (BMX) | number of time points (BRAF_V600E) | number of time points (BTK)
5: number of time points (BRAF)
inactive: kinase-Nluc reporter destabilization hit call (STK38) 0 | kinase-Nluc reporter destabilization hit call (SYK) 0 | kinase-Nluc reporter destabilization hit call (TEC) 0 | kinase-Nluc reporter destabilization hit call (TYK2) 0 | kinase-Nluc reporter destabilization hit call (ULK3) 0 | kinase-Nluc reporter destabilization hit call (YES1) 0 | kinase-Nluc reporter destabilization hit call (ZAK) 0 | kinase-Nluc reporter destabilization hit call (ZAP70) 0

CCn1c(-c2nonc2N)nc2c(C#CC(C)(C)O)ncc(OC[C@H]3CCCNC3)c21 (10 µM)
inactive: kinase-Nluc reporter destabilization hit call (STK38) 0 | kinase-Nluc reporter destabilization hit call (SYK) 0 | kinase-Nluc reporter destabilization hit call (TEC) 0 | kinase-Nluc reporter destabilization hit call (TYK2) 0 | kinase-Nluc reporter destabilization hit call (ULK3) 0 | kinase-Nluc reporter destabilization hit call (YES1) 0 | kinase-Nluc reporter destabilization hit call (ZAK) 0 | kinase-Nluc reporter destabilization hit call (ZAP70) 0
0: number of time points (ABL1) | number of time points (AKT1) | number of time points (ALK) | number of time points (ARAF) | number of time points (AURKA) | number of time points (AURKB) | number of time points (AURKC) | number of time points (BLK) | number of time points (BMX) | number of time points (BRAF) | number of time points (BRAF_V600E) | number of time points (BTK)

CC(C)=CCC/C(C)=C/CC/C(C)=C/C=C/C(C)=C/C(=O)O [Peretinoin] (10 µM)
inactive: kinase-Nluc reporter destabilization hit call (STK38) 0 | kinase-Nluc reporter destabilization hit call (SYK) 0 | kinase-Nluc reporter destabilization hit call (TEC) 0 | kinase-Nluc reporter destabilization hit call (TYK2) 0 | kinase-Nluc reporter destabilization hit call (ULK3) 0 | kinase-Nluc reporter destabilization hit call (YES1) 0 | kinase-Nluc reporter destabilization hit call (ZAK) 0 | kinase-Nluc reporter destabilization hit call (ZAP70) 0
0: number of time points (ABL1) | number of time points (AKT1) | number of time points (ALK) | number of time points (ARAF) | number of time points (AURKA) | number of time points (AURKB) | number of time points (AURKC) | number of time points (BLK) | number of time points (BMX) | number of time points (BRAF) | number of time points (BRAF_V600E) | number of time points (BTK)

COC(=O)Nc1ccc(-c2nc(N3CCOCC3)c3cnn(C4CCN(C(=O)OC)CC4)c3n2)cc1 (10 µM)
0: number of time points (ABL1) | number of time points (AKT1) | number of time points (ALK) | number of time points (ARAF) | number of time points (AURKA) | number of time points (AURKB) | number of time points (AURKC) | number of time points (BLK) | number of time points (BMX) | number of time points (BRAF) | number of time points (BRAF_V600E) | number of time points (BTK)
inactive: kinase-Nluc reporter destabilization hit call (STK38) 0 | kinase-Nluc reporter destabilization hit call (SYK) 0 | kinase-Nluc reporter destabilization hit call (TEC) 0 | kinase-Nluc reporter destabilization hit call (TYK2) 0 | kinase-Nluc reporter destabilization hit call (ULK3) 0 | kinase-Nluc reporter destabilization hit call (YES1) 0 | kinase-Nluc reporter destabilization hit call (ZAK) 0 | kinase-Nluc reporter destabilization hit call (ZAP70) 0

O=C(Nc1cccnc1)c1cc(-c2ccnc(F)c2)ccc1OCc1ccccc1 (10 µM)
inactive: kinase-Nluc reporter destabilization hit call (STK38) 0 | kinase-Nluc reporter destabilization hit call (SYK) 0 | kinase-Nluc reporter destabilization hit call (TEC) 0 | kinase-Nluc reporter destabilization hit call (TYK2) 0 | kinase-Nluc reporter destabilization hit call (ULK3) 0 | kinase-Nluc reporter destabilization hit call (YES1) 0 | kinase-Nluc reporter destabilization hit call (ZAK) 0 | kinase-Nluc reporter destabilization hit call (ZAP70) 0
0: number of time points (ABL1) | number of time points (AKT1) | number of time points (ALK) | number of time points (ARAF) | number of time points (AURKA) | number of time points (AURKB) | number of time points (AURKC) | number of time points (BLK) | number of time points (BMX) | number of time points (BRAF) | number of time points (BRAF_V600E) | number of time points (BTK)
